PubChem BioAssay AID1259261, Sanger Institute | 2017

Purpose: 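Kinase knock-downs that kill colorectal cancer cells or boost targeted drugs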 (primary screen)
System: HCC2998 human colorectal cancer cells
Reagent: siRNA pool against human genes
Challenge: anchor drugs BYL719 1 µM, cetuximab 5 µg/ml or trametinib 10 nM, each compared with DMSO vehicle
Detection: 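Viability as fraction of non-targeting control plus robust z-score without drug; synergy scores compare knock-down plus drug against each alone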
Scale: viability z-score, knock-down alone: higher = more viable cells than controls; viability fraction, knock-down alone: higher = more viable cells; synergy score with BYL719: higher = stronger combined killing with BYL719; synergy score with trametinib: higher = stronger combined killing with trametinib; synergy score with cetuximab: higher = stronger combined killing with cetuximab
Rule for the call: 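a knock-down is called essential if its robust z-score without drug is under -3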
Calls: active = essential; inactive = no change
Here is a random part of 794 reagents. Of all reagents, 10 (1.3%) got an active call. 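Calls reflect knock-down alone without drug; synergy scores with BYL719, cetuximab or trametinib do not affect calls.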 Viability is capped at 1. Not stated in the record: the amount of reagent, the time to read-out.

no.	gene symbol	viability z-score, knock-down alone	viability fraction, knock-down alone	synergy score with BYL719	synergy score with trametinib	synergy score with cetuximab	activity call
1	ETNK1	-1.5	0.661	-0.0644	0.0384	0.00398	inactive
2	PIM3	0.026	0.852	-0.194	-0.19	-0.185	inactive
3	FGR	-0.383	0.801	-0.0707	0.0852	-0.121	inactive
4	NME4	0.174	0.871	-0.0348	-0.0982	0.0149	inactive
5	ALPK2	-0.367	0.803	-0.0559	0.0419	0.0571	inactive
6	PTPN11	-0.594	0.774	-0.109	-0.0232	-0.135	inactive
7	PIK3R5	0.0546	0.856	-0.0008	0.0791	-0.145	inactive
8	SMAD4	-0.045	0.843	0.0713	-0.0757	-0.0385	inactive
9	IKBKG	-0.453	0.792	-0.0148	0.015	-0.0228	inactive
10	PI4KA	1.21	1	-0.109	0.107	-0.0413	inactive
11	TRIM27	0.536	0.916	0.0207	0.0502	-0.084	inactive
12	CTCF	-0.487	0.788	-0.0408	-0.0488	-0.216	inactive
13	PKN1	0.0517	0.855	-0.0144	-0.0544	-0.0668	inactive
14	SPEG	-0.605	0.773	-0.151	-0.0411	-0.0694	inactive
15	LCK	0.643	0.929	0.0237	0.119	-0.0362	inactive
16	NPR2	1.21	1	0.0288	0.172	0.0129	inactive
17	TAOK2	1.21	1	-0.106	-0.0135	-0.0432	inactive
18	PRKCA	0.406	0.9	0.0928	0.153	-0.000289	inactive
19	AK4	0.31	0.888	-0.0569	-0.0541	-0.141	inactive
20	WIPF1	-2.29	0.562	-0.0576	0.0163	0.0337	inactive
21	ADGRL2	-2.07	0.59	-0.0358	0.00424	0.0288	inactive
22	AXIN2	0.769	0.945	-0.00585	0.132	-0.0956	inactive
23	PANK3	0.138	0.866	-0.0418	-0.0807	0.0452	inactive
24	MINK1	-0.389	0.8	0.0186	0.11	-0.0759	inactive
25	GSK3B	1.18	0.997	-0.112	0.00348	-0.0462	inactive
26	CKS1B	0.638	0.929	-0.145	-0.0926	-0.0436	inactive
27	EPHA7	-1.32	0.684	-0.115	0.039	-0.0965	inactive
28	GNAS	-0.538	0.781	0.0191	-0.0262	-0.203	inactive
29	CASP8	0.147	0.867	-0.0626	0.0617	0.0572	inactive
30	PRKAA2	0.591	0.923	-0.0321	0.107	0.00515	inactive
31	RTN4	0.565	0.92	-0.000916	0.0374	0.0486	inactive
32	WT1	0.00829	0.85	-0.0743	-0.0276	-0.0138	inactive
33	GRK6	1.21	1	-0.061	0.0847	-0.0432	inactive
34	TRIB3	-0.875	0.739	0.00274	0.08	-0.0654	inactive
35	PACSIN1	0.078	0.859	-0.0608	0.0928	0.0608	inactive
36	MAP2K2	1.21	1	0.0344	-0.0388	-0.0432	inactive
37	TSSK1B	-0.229	0.82	-0.0834	0.0292	-0.0139	inactive
38	PFKFB4	-0.652	0.767	-0.0948	-0.081	-0.266	inactive
39	CDKL5	-0.846	0.743	-0.115	-0.00403	-0.162	inactive
40	MAP3K11	0.195	0.873	0.00449	0.0479	0.0225	inactive
41	PHKG2	-0.0797	0.839	-0.138	0.00431	-0.137	inactive
42	PGK2	0.5	0.912	-0.0248	0.0599	0.0208	inactive
43	MYLK	-0.0226	0.846	0.0309	0.118	-0.0191	inactive
44	CDK14	-0.181	0.826	-0.144	-0.0319	-0.128	inactive
45	AXL	0.519	0.914	-0.061	0.0536	-0.107	inactive
46	FES	-0.163	0.828	-0.0632	-0.0796	-0.096	inactive
47	ACVRL1	1.03	0.978	-0.0317	-0.0947	0.0642	inactive
48	CDK1	0.643	0.929	-0.0286	-0.138	-0.0663	inactive
49	CDK10	-0.526	0.783	-0.0797	0.0956	-0.083	inactive
50	TNK2	1.04	0.979	-0.0526	0.00745	-0.0368	inactive

5 consecutive records already listed, quoted:
no.	gene symbol	viability z-score, knock-down alone	viability fraction, knock-down alone	synergy score with BYL719	synergy score with trametinib	synergy score with cetuximab	activity call
26	CKS1B	0.638	0.929	-0.145	-0.0926	-0.0436	inactive
27	EPHA7	-1.32	0.684	-0.115	0.039	-0.0965	inactive
28	GNAS	-0.538	0.781	0.0191	-0.0262	-0.203	inactive
29	CASP8	0.147	0.867	-0.0626	0.0617	0.0572	inactive
30	PRKAA2	0.591	0.923	-0.0321	0.107	0.00515	inactive
